Article PMC8035766
These are yes or no findings as the source states them, for the method shown. Binding seen in cells or lysates may run through a third protein. Some entries that bind do so weakly or less than the wild type. Where a sequence is shown, tags or fusion partners need not be part of it.

Sequences of proteins named here, by UniProt entry; tags and fusion partners are left off.
UniProt Q14694: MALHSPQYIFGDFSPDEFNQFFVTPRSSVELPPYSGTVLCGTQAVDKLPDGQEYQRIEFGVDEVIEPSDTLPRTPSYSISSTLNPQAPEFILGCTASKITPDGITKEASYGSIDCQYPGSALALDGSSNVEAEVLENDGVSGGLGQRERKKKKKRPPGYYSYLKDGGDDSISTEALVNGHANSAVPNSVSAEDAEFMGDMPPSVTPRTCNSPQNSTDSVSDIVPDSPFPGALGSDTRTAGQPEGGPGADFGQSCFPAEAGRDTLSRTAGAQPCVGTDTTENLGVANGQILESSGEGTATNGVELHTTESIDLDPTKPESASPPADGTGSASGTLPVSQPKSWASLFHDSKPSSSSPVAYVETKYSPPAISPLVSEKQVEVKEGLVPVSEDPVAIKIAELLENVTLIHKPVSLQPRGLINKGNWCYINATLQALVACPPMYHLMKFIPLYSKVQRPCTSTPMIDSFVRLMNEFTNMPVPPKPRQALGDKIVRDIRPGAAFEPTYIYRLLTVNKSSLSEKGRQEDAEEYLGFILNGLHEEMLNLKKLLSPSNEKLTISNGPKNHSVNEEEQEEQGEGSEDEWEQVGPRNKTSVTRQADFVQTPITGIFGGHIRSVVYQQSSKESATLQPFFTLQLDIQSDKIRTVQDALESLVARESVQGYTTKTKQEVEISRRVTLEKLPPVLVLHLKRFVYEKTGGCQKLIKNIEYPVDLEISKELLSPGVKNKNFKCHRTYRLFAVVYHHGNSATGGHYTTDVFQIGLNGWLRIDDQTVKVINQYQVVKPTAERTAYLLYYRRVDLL

Biological target: ubiquitin-specific peptidase 10 (USP10) (human (endogenous in HT29)) (UniProt Q14694)
Assay: co-IP; whole-cell extracts (50 mM Tris-HCl pH 7.5, 150 mM NaCl, 5 mM EDTA, protease inhibitors) precipitated with antibody against USP10, 4 °C, protein A/G agarose; NLRP7 detected by western blot

binding: binds
B1: Flag-NLRP7 (NACHT, LRR and PYD domains-containing protein 7) (protein, UniProt Q8WX94 1-980)
chain: MTSPQLEWTLQTLLEQLNEDELKSFKSLLWAFPLEDVLQKTPWSEVEEADGKKLAEILVNTSSENWIRNATVNILEEMNLTELCKMAKAEMMEDGQVQEIDNPELGDAEEDSELAKPGEKEGWRNSMEKQSLVWKNTFWQGDIDNFHDDVTLRNQRFIPFLNPRTPRKLTPYTVVLHGPAGVGKTTLAKKCMLDWTDCNLSPTLRYAFYLSCKELSRMGPCSFAELISKDWPELQDDIPSILAQAQRILFVVDGLDELKVPPGALIQDICGDWEKKKPVPVLLGSLLKRKMLPRAALLVTTRPRALRDLQLLAQQPIYVRVEGFLEEDRRAYFLRHFGDEDQAMRAFELMRSNAALFQLGSAPAVCWIVCTTLKLQMEKGEDPVPTCLTRTGLFLRFLCSRFPQGAQLRGALRTLSLLAAQGLWAQMSVFHREDLERLGVQESDLRLFLDGDILRQDRVSKGCYSFIHLSFQQFLTALFYALEKEEGEDRDGHAWDIGDVQKLLSGEERLKNPDLIQVGHFLFGLANEKRAKELEATFGCRMSPDIKQELLQCKAHLHANKPLSVTDLKEVLGCLYESQEEELAKVVVAPFKEISIHLTNTSEVMHCSFSLKHCQDLQKLSLQVAKGVFLENYMDFELDIEFERCTYLTIPNWARQDLRSLRLWTDFCSLFSSNSNLKFLEVKQSFLSDSSVRILCDHVTRSTCHLQKVEIKNVTPDTAYRDFCLAFIGKKTLTHLTLAGHIEWERTMMLMLCDLLRNHKCNLQYLRLGGHCATPEQWAEFFYVLKANQSLKHLRLSANVLLDEGAMLLYKTMTRPKHFLQMLSLENCRLTEASCKDLAAVLVVSKKLTHLCLAKNPIGDTGVKFLCEGLSYPDCKLQTLVLQQCSITKLGCRYLSEALQEACSLTNLDLSINQIARGLWILCQALENPNCNLKHLRLKTYETNLEIKKLLEEVKEKNPKLTIDCNASGATAPPCCDFFC
